# From the supplement of paper PMC8728848
# The list shows a part of the results.
# Tests used:
# Experiment in all cases: glycan array binding signal (z-score within array); higher = stronger binding
# Conditions in all cases: glycan notation: IUPAC condensed, linker removed
# [1] = target: Fuc(a1-2)[GalNAc(a1-3)]Gal(b1-4)GlcNAc
# Procedure, shortened: (§1)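 The Consortium for Functional Glycomics database supplied 3228 glycan arrays, of which those lacking an available protein sequence were dropped. The binding signal, a within-array Z-score, was averaged across arrays of the same protein sequence and across linkers. Negative scores can be read as non-binding.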
# [2] = target: Fuc(a1-2)[GalNAc(a1-3)]Gal(b1-4)GlcNAc(b1-2)Man
# Procedure, shortened: as §1
# [3] = target: Fuc(a1-2)[GalNAc(a1-3)]Gal(b1-4)GlcNAc(b1-2)Man(a1-3)[Fuc(a1-2)[GalNAc(a1-3)]Gal(b1-4)GlcNAc(b1-2)Man(a1-6)]Man(b1-4)GlcNAc(b1-4)GlcNAc
# Procedure, shortened: as §1
# [4] = target: Fuc(a1-2)[GalNAc(a1-3)]Gal(b1-4)GlcNAc(b1-2)Man(a1-3)[Fuc(a1-2)[GalNAc(a1-3)]Gal(b1-4)GlcNAc(b1-2)Man(a1-6)]Man(b1-4)GlcNAc(b1-4)[Fuc(a1-6)]GlcNAc
# Procedure, shortened: as §1
# [5] = target: Fuc(a1-2)[GalNAc(a1-3)]Gal(b1-4)GlcNAc(b1-3)Gal(b1-4)GlcNAc
# Procedure, shortened: as §1
# [6] = target: Fuc(a1-2)[GalNAc(a1-3)]Gal(b1-4)GlcNAc(b1-3)Gal(b1-4)GlcNAc(b1-3)Gal(b1-4)GlcNAc
# Procedure, shortened: as §1
# [7] = target: Fuc(a1-2)[GalNAc(a1-3)]Gal(b1-4)GlcNAc(b1-3)GalNAc
# Procedure, shortened: as §1
# [8] = target: Fuc(a1-2)[GalNAc(a1-3)]Gal(b1-4)GlcNAc(b1-3)[Fuc(a1-2)[GalNAc(a1-3)]Gal(b1-4)GlcNAc(b1-6)]GalNAc
# Procedure, shortened: as §1
# [9] = target: Fuc(a1-2)[GalNAc(a1-3)]Gal(b1-4)GlcNAc(b1-6)GalNAc
# Procedure, shortened: as §1
# [10] = target: Fuc(a1-2)[GalNAc(a1-3)]Gal(b1-4)[Fuc(a1-3)]GlcNAc
# Procedure, shortened: as §1
# [11] = target: Fuc(a1-2)[GalNAc(a1-3)]Gal(b1-4)[Fuc(a1-3)]GlcNAc(b1-3)GalNAc
# Procedure, shortened: as §1
# [12] = target: Fuc(a1-2)[GalNAc(a1-4)]Gal(b1-4)GlcNAc
# Procedure, shortened: as §1
# [13] = target: Fuc(a1-2)[GalNAc(b1-3)]Gal
# Procedure, shortened: as §1
# Fuc(a1-3)GlcNAc = target: Fuc(a1-3)GlcNAc
# Procedure, shortened: as §1
# [14] = target: Fuc(a1-3)[Gal(b1-4)]Glc6S
# Procedure, shortened: as §1
# [15] = target: Fuc(a1-3)[Gal(b1-4)]GlcNAc
# Procedure, shortened: as §1
# [16] = target: Fuc(a1-3)[Gal(b1-4)]GlcNAc(b1-2)Man
# Procedure, shortened: as §1
# [17] = target: Fuc(a1-3)[Gal(b1-4)]GlcNAc(b1-2)Man(a1-3)[Fuc(a1-3)[Gal(b1-4)]GlcNAc(b1-2)Man(a1-6)]Man(b1-4)GlcNAc(b1-4)GlcNAc
# Procedure, shortened: as §1
# [18] = target: Fuc(a1-3)[Gal(b1-4)]GlcNAc(b1-2)Man(a1-3)[Fuc(a1-3)[Gal(b1-4)]GlcNAc(b1-2)Man(a1-6)]Man(b1-4)GlcNAc(b1-4)[Fuc(a1-6)]GlcNAc
# Procedure, shortened: as §1
# [19] = target: Fuc(a1-3)[Gal(b1-4)]GlcNAc(b1-3)Gal(b1-3)[Fuc(a1-4)]GlcNAc
# Procedure, shortened: as §1
# [20] = target: Fuc(a1-3)[Gal(b1-4)]GlcNAc(b1-3)Gal(b1-4)[Fuc(a1-3)]GlcNAc
# Procedure, shortened: as §1
# [21] = target: Fuc(a1-3)[Gal(b1-4)]GlcNAc(b1-3)Gal(b1-4)[Fuc(a1-3)]GlcNAc(b1-3)Gal(b1-4)[Fuc(a1-3)]GlcNAc
# Procedure, shortened: as §1
# [22] = target: Fuc(a1-3)[Gal(b1-4)]GlcNAc(b1-3)GalNAc
# Procedure, shortened: as §1
# [23] = target: Fuc(a1-3)[Gal(b1-4)]GlcNAc(b1-4)Gal(b1-4)[Fuc(a1-3)]GlcNAc
# Procedure, shortened: as §1
# [24] = target: Fuc(a1-3)[Gal(b1-4)]GlcNAc(b1-4)Gal(b1-4)[Fuc(a1-3)]GlcNAc(b1-4)Gal(b1-4)[Fuc(a1-3)]GlcNAc
# Procedure, shortened: as §1
# [25] = target: Fuc(a1-3)[Gal(b1-4)]GlcNAc(b1-6)GalNAc
# Procedure, shortened: as §1
# [26] = target: Fuc(a1-3)[Gal(b1-4)]GlcNAc(b1-6)[Gal(b1-3)GlcNAc(b1-3)]Gal(b1-4)Glc
# Procedure, shortened: as §1
# [27] = target: Fuc(a1-3)[Gal(b1-4)]GlcNAc(b1-6)[Neu5Ac(a2-3)Gal(b1-3)]GalNAc
# Procedure, shortened: as §1
# [28] = target: Fuc(a1-3)[Gal(b1-4)]GlcNAc6S
# Procedure, shortened: as §1
# [29] = target: Fuc(a1-3)[Gal3S(b1-4)]Glc
# Procedure, shortened: as §1
# [30] = target: Fuc(a1-3)[Gal3S(b1-4)]GlcNAc
# Procedure, shortened: as §1
# [31] = target: Fuc(a1-3)[Gal3S(b1-4)]GlcNAc6S
# Procedure, shortened: as §1
# [32] = target: Fuc(a1-3)[GalNAc(b1-4)]GlcNAc
# Procedure, shortened: as §1
# [33] = target: Fuc(a1-3)[GalNAc(b1-4)]GlcNAc6S
# Procedure, shortened: as §1
# Fuc(a1-4)GlcNAc = target: Fuc(a1-4)GlcNAc
# Procedure, shortened: as §1
# Fuc(b1-3)GlcNAc = target: Fuc(b1-3)GlcNAc
# Procedure, shortened: as §1
# Gal(a1-2)Gal = target: Gal(a1-2)Gal
# Procedure, shortened: as §1
# Gal(a1-3)Gal = target: Gal(a1-3)Gal
# Procedure, shortened: as §1
# Gal(a1-3)Gal(b1-3)GlcNAc = target: Gal(a1-3)Gal(b1-3)GlcNAc
# Procedure, shortened: as §1
# [34] = target: Gal(a1-3)Gal(b1-3)GlcNAc(b1-2)Man
# Procedure, shortened: as §1
# [35] = target: Gal(a1-3)Gal(b1-3)GlcNAc(b1-2)Man(a1-3)[Gal(a1-3)Gal(b1-3)GlcNAc(b1-2)Man(a1-6)]Man(b1-4)GlcNAc(b1-4)GlcNAc
# Procedure, shortened: as §1
# [36] = target: Gal(a1-3)Gal(b1-3)GlcNAc(b1-3)GalNAc
# Procedure, shortened: as §1
# [37] = target: Gal(a1-3)Gal(b1-3)GlcNAc(b1-6)GalNAc
# Procedure, shortened: as §1
# [38] = target: Gal(a1-3)Gal(b1-3)[Fuc(a1-4)]GlcNAc(b1-2)Man(a1-3)[Gal(a1-3)Gal(b1-3)[Fuc(a1-4)]GlcNAc(b1-2)Man(a1-6)]Man(b1-4)GlcNAc(b1-4)GlcNAc
# Procedure, shortened: as §1
# Gal(a1-3)Gal(b1-4)Glc = target: Gal(a1-3)Gal(b1-4)Glc
# Procedure, shortened: as §1
# Gal(a1-3)Gal(b1-4)GlcNAc = target: Gal(a1-3)Gal(b1-4)GlcNAc
# Procedure, shortened: as §1
# [39] = target: Gal(a1-3)Gal(b1-4)GlcNAc(b1-2)Man
# Procedure, shortened: as §1
# [40] = target: Gal(a1-3)Gal(b1-4)GlcNAc(b1-2)Man(a1-3)[Gal(a1-3)Gal(b1-4)GlcNAc(b1-2)Man(a1-6)]Man(b1-4)GlcNAc(b1-4)GlcNAc
# Procedure, shortened: as §1
# [41] = target: Gal(a1-3)Gal(b1-4)GlcNAc(b1-3)GalNAc
# Procedure, shortened: as §1
# [42] = target: Gal(a1-3)Gal(b1-4)GlcNAc(b1-6)GalNAc
# Procedure, shortened: as §1
# [43] = target: Gal(a1-3)Gal(b1-4)[Fuc(a1-3)]GlcNAc
# Procedure, shortened: as §1
# [44] = target: Gal(a1-3)Gal(b1-4)[Fuc(a1-3)]GlcNAc(b1-2)Man(a1-3)[Gal(a1-3)Gal(b1-4)[Fuc(a1-3)]GlcNAc(b1-2)Man(a1-6)]Man(b1-4)GlcNAc(b1-4)GlcNAc
# Procedure, shortened: as §1
# Gal(a1-3)GalNAc = target: Gal(a1-3)GalNAc
# Procedure, shortened: as §1
binder,measurement,setting,value
KILRGVCKKIMRTFLRRISKDILTGKK [NK2 (Sus scrofa)],glycan array binding signal (z-score),[1],-0.655
same,glycan array binding signal (z-score),[2],1.39
same,glycan array binding signal (z-score),[3],-0.787
same,glycan array binding signal (z-score),[4],0.216
same,glycan array binding signal (z-score),[5],0.41
same,glycan array binding signal (z-score),[6],-0.003
same,glycan array binding signal (z-score),[7],-0.327
same,glycan array binding signal (z-score),[8],1.67
same,glycan array binding signal (z-score),[9],-1.05
same,glycan array binding signal (z-score),[10],0.738
same,glycan array binding signal (z-score),[11],0.413
same,glycan array binding signal (z-score),[12],-1.07
same,glycan array binding signal (z-score),[13],-0.991
same,glycan array binding signal (z-score),Fuc(a1-3)GlcNAc,-0.228
same,glycan array binding signal (z-score),[14],0.197
same,glycan array binding signal (z-score),[15],-0.662
same,glycan array binding signal (z-score),[16],0.181
same,glycan array binding signal (z-score),[17],-0.56
same,glycan array binding signal (z-score),[18],1.17
same,glycan array binding signal (z-score),[19],-0.574
same,glycan array binding signal (z-score),[20],-0.101
same,glycan array binding signal (z-score),[21],0.876
same,glycan array binding signal (z-score),[22],0.755
same,glycan array binding signal (z-score),[23],-0.45
same,glycan array binding signal (z-score),[24],-0.525
same,glycan array binding signal (z-score),[25],-0.254
same,glycan array binding signal (z-score),[26],0.544
same,glycan array binding signal (z-score),[27],0.714
same,glycan array binding signal (z-score),[28],0.501
same,glycan array binding signal (z-score),[29],0.232
same,glycan array binding signal (z-score),[30],0.36
same,glycan array binding signal (z-score),[31],1.58
same,glycan array binding signal (z-score),[32],0.101
same,glycan array binding signal (z-score),[33],0.323
same,glycan array binding signal (z-score),Fuc(a1-4)GlcNAc,-0.394
same,glycan array binding signal (z-score),Fuc(b1-3)GlcNAc,-0.41
same,glycan array binding signal (z-score),Gal(a1-2)Gal,-0.55
same,glycan array binding signal (z-score),Gal(a1-3)Gal,0.016
same,glycan array binding signal (z-score),Gal(a1-3)Gal(b1-3)GlcNAc,-0.154
same,glycan array binding signal (z-score),[34],-0.273
same,glycan array binding signal (z-score),[35],0.062
same,glycan array binding signal (z-score),[36],-0.544
same,glycan array binding signal (z-score),[37],0.652
same,glycan array binding signal (z-score),[38],0.189
same,glycan array binding signal (z-score),Gal(a1-3)Gal(b1-4)Glc,0.052
same,glycan array binding signal (z-score),Gal(a1-3)Gal(b1-4)GlcNAc,0.172
same,glycan array binding signal (z-score),[39],0.063
same,glycan array binding signal (z-score),[40],0.776
same,glycan array binding signal (z-score),[41],0.826
same,glycan array binding signal (z-score),[42],0.752
same,glycan array binding signal (z-score),[43],-1.01
same,glycan array binding signal (z-score),[44],0.385
same,glycan array binding signal (z-score),Gal(a1-3)GalNAc,-0.59

# For convenience, some entries already given.
binder,measurement,setting,value
KILRGVCKKIMRTFLRRISKDILTGKK [NK2 (Sus scrofa)],glycan array binding signal (z-score),[37],0.652
same,glycan array binding signal (z-score),[38],0.189
